From the supplement of paper PMC10849652
This is one part of the list.

Protein sequences, listed by entry. Tags and fused reporters are not part of them. Lines headed by an entry give the natural chain unless they say otherwise; changes in a name come on top.
UniProt P28702: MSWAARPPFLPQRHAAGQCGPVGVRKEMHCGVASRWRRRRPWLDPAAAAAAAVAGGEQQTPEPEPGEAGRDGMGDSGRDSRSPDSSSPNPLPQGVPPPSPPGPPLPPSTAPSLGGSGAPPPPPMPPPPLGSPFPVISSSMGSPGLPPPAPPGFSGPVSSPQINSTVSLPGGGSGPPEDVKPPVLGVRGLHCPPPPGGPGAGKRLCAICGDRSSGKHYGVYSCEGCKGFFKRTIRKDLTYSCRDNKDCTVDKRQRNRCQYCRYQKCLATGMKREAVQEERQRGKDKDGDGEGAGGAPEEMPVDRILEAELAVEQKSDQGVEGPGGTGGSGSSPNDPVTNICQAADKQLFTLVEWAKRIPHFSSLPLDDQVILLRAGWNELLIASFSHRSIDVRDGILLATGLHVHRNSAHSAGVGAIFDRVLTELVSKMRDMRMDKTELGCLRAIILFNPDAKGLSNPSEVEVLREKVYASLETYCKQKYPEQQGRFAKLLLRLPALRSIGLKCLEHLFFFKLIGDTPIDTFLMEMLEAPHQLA
UniProt O75582, whole entry, looked up: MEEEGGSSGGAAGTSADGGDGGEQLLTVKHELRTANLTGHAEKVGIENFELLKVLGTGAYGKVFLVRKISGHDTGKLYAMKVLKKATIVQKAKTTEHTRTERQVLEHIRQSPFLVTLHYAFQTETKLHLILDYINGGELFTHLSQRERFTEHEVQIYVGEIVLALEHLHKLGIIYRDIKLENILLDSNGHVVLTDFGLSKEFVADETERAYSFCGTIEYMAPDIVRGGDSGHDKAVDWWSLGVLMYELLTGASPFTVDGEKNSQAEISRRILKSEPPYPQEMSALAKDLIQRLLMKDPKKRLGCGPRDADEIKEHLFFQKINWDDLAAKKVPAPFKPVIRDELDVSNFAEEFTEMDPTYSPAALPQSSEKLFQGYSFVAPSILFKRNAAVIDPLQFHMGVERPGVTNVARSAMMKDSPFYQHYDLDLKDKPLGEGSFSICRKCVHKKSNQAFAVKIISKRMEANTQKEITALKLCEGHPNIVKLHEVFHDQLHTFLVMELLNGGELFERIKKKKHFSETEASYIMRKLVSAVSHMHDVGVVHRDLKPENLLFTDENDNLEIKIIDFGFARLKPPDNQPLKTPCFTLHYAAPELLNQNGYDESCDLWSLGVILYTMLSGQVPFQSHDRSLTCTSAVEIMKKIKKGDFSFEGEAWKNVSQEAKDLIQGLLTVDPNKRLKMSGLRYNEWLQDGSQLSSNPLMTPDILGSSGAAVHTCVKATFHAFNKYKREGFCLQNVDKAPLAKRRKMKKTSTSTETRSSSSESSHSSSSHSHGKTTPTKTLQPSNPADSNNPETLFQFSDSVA
UniProt Q8N2Y8: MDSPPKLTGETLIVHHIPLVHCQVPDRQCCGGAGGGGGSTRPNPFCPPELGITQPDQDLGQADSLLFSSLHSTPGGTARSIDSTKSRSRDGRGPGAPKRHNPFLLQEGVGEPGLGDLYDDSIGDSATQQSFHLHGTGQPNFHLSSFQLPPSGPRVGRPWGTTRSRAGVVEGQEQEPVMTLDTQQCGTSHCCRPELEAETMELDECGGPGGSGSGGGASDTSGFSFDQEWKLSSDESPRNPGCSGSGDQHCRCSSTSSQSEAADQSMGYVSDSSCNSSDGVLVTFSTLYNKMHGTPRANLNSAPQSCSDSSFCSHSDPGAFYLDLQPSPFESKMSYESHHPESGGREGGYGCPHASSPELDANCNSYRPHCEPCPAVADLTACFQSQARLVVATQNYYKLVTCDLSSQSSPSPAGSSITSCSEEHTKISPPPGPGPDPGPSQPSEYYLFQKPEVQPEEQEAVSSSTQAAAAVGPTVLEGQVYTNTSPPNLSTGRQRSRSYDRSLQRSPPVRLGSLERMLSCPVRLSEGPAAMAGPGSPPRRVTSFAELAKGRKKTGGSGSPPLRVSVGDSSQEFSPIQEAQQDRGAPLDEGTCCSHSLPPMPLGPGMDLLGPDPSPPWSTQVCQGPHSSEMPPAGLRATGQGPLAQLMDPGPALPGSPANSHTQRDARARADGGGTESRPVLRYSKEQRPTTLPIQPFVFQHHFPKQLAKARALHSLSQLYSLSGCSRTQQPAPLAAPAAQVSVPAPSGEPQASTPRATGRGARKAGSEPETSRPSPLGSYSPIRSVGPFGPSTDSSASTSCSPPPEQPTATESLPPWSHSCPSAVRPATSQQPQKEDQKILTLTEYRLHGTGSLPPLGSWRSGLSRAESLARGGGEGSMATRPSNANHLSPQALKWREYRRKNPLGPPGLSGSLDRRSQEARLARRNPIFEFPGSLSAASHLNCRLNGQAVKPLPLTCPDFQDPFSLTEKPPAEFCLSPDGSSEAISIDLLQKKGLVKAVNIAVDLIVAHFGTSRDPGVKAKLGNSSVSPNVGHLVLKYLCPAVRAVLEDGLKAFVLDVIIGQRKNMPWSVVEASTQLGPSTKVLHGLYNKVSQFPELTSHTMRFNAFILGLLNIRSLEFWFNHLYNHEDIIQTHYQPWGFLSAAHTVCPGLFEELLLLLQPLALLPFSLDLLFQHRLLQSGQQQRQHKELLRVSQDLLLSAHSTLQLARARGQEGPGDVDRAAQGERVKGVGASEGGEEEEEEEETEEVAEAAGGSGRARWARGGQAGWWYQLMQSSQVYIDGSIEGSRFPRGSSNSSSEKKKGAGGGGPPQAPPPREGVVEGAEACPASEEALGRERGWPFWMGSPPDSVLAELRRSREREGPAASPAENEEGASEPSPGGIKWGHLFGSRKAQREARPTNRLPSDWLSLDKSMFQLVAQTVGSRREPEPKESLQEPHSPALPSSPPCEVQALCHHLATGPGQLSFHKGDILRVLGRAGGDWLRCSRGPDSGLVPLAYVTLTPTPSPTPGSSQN
UniProt Q6PCB5: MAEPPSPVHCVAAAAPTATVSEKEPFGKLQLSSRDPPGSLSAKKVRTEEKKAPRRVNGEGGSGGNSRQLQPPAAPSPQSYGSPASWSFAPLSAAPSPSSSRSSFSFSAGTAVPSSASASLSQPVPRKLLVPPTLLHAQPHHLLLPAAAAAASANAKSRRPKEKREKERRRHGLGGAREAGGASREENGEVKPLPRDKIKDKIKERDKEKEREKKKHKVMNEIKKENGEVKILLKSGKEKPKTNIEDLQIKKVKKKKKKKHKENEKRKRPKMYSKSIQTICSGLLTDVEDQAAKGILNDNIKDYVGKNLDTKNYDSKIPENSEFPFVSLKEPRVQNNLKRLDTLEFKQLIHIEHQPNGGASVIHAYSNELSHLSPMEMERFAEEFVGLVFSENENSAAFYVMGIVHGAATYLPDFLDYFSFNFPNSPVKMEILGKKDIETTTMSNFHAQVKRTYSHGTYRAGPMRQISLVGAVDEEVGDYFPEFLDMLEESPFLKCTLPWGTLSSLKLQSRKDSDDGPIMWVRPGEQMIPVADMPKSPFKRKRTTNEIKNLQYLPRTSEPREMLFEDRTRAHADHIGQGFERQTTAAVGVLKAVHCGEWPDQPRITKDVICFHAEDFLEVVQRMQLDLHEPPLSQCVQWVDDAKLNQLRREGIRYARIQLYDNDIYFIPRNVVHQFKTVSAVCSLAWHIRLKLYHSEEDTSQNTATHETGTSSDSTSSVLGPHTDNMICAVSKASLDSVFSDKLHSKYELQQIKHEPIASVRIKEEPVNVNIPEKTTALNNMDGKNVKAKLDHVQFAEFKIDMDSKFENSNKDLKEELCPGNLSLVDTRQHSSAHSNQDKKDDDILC
UniProt Q9HA92: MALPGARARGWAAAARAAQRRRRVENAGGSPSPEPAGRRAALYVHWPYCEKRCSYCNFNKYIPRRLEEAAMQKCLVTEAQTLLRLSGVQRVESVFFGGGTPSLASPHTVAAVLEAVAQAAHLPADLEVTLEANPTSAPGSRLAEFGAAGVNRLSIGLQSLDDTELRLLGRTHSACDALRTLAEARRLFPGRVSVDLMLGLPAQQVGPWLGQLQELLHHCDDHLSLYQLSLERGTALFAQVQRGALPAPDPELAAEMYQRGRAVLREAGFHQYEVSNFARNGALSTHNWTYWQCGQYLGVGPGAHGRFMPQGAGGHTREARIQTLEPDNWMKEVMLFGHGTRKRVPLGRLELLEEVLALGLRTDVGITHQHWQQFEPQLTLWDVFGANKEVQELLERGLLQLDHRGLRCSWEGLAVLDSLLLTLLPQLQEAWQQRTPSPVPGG
UniProt P78345: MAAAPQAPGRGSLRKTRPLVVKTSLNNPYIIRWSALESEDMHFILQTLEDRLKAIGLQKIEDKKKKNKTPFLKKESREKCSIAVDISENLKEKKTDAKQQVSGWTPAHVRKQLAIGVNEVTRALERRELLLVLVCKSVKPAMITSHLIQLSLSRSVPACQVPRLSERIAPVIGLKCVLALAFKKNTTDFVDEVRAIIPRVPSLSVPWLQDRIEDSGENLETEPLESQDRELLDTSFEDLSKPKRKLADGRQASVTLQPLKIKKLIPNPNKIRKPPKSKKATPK
UniProt Q9UBS0: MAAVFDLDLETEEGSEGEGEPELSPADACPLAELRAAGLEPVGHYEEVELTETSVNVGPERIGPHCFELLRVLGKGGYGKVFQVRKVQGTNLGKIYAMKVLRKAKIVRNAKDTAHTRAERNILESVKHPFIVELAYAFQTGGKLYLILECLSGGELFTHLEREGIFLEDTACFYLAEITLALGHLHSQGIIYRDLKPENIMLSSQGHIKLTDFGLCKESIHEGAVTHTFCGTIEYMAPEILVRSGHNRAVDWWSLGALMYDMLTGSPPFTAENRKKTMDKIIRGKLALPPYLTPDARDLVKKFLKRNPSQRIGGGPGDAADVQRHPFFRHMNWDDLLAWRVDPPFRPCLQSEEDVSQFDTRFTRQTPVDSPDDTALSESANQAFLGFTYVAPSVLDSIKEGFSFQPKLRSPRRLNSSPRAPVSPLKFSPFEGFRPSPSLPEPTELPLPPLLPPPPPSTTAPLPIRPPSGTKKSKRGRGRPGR
UniProt Q9UJJ7: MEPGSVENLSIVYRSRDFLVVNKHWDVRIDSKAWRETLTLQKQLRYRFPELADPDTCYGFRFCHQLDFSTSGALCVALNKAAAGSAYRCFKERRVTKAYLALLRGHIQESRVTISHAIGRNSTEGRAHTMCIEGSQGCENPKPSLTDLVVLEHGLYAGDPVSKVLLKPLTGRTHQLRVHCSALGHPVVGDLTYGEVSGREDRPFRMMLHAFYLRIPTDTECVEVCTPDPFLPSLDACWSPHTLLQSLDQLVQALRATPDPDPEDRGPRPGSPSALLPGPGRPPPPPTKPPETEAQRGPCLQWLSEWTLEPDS
UniProt Q9BWD3: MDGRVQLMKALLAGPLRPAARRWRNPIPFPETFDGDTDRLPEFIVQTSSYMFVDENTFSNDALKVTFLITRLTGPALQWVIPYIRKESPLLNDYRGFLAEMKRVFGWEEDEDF
UniProt Q92681: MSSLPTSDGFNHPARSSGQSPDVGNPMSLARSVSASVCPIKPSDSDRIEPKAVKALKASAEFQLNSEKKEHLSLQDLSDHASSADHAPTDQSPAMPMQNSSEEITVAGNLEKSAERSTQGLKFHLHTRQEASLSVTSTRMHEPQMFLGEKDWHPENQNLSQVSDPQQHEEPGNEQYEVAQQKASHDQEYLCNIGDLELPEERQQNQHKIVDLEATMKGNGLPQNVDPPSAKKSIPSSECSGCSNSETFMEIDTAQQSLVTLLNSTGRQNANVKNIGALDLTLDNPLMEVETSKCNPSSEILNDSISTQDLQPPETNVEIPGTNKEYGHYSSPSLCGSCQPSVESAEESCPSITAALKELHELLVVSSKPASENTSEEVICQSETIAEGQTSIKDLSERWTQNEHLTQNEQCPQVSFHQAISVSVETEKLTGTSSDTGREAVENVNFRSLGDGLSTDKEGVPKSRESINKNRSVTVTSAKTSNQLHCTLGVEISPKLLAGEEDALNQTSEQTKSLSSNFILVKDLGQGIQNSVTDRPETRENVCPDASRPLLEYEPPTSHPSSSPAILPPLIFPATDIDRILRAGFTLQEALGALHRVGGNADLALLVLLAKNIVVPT
UniProt Q9Y2B1: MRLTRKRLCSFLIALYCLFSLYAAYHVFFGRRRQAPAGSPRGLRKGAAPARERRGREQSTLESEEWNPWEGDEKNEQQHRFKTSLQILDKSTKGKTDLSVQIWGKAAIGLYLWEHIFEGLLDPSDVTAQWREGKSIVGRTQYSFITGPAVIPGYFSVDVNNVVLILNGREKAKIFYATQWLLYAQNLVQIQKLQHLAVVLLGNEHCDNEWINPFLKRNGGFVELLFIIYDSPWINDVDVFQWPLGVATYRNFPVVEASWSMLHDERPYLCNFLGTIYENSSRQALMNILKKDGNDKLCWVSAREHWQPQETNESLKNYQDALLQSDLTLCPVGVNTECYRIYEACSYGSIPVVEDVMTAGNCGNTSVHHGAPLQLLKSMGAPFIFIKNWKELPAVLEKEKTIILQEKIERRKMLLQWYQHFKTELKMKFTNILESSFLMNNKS

How the values were obtained:
Assay in all cases: log2 fold change, soluble protein after heating vs DMSO (PISA); higher = thermal stabilisation; K562 lysate, 10 uM; active = over 0.2 and 3.5 SD of the protein, either way, in both replicates (recomputed)
erlotinib = compound: C#Cc1cccc(Nc2ncnc3cc(OCCOC)c(OCCOC)cc23)c1 [erlotinib]
Method in brief: (§1)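 K562 pellets were dounce-homogenised in PBS pH 7.4 containing 1 mM MgCl2, and the crude extract, at 1 mg/mL protein, was exposed to 10 μM compound for 30 min. Aliquots were heated for 3 min across 48°C-58°C, pooled, brought to 0.5% NP-40 at 4°C and spun at 21,000xg for 90 min, with the supernatant taken as soluble protein. TMTpro 16plex LC-MS/MS with equalised channel sums quantified that protein. Values are log-two fold changes in thermal stability relative to solvent controls, taken from duplicates.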

[1] = compound: C/C(=N\NC(=O)C1=CC(=CC=C1)S(=O)(=O)N2CCOCC2)/C3=C(C=CC(=C3)Cl)O
Method in brief: as §1

[2] = compound: C1=CC(=CC=C1C2=NC3=C(N2)C=C(C=C3)C(=O)N)OC4=CC=C(C=C4)Cl
Method in brief: as §1

[3] = compound: C1=CC2=C(C=CC(=C2)/C=C\3/C(=O)NC(=NCC4=CC=CS4)S3)N=C1
Method in brief: as §1

[4] = compound: C1=CC2=NC=CN=C2C=C1/C=C/3\C(=O)NC(=O)S3
Method in brief: as §1

[5] = compound: C1=CC=C2C(=C1)C3=NNC4=CC=CC(=C43)C2=O
Method in brief: as §1

[6] = compound: C1CCN(C1)C(=O)NC2=CC=CC(=C2)NC3=NC=C(C(=N3)NCCC4=CN=CN4)Br
Method in brief: as §1

[7] = compound: C1CN(CCC1(CC2=CC=C(C=C2)Cl)N)C3=NC=NC4=C3C=CN4
Method in brief: as §1

ibrutinib = compound: C=CC(=O)N1CCC[C@@H](n2nc(-c3ccc(Oc4ccccc4)cc3)c3c(N)ncnc32)C1 [ibrutinib]
Method in brief: as §1

[8] = compound: CC(=O)c1cnc2ccc(-c3cc(Cl)c(O)c(Cl)c3)nc2c1N[C@H]1CC[C@H](CN(C)C)CC1
Method in brief: as §1

[9] = compound: CC(C)C1=C2N=C(C=C(N2N=C1)NCC3=CC=CC=C3)NCCCCCCN
Method in brief: as §1

[10] = compound: CC1=C(C(CC(=O)N1)C2=CC=C(C=C2)C(F)(F)F)C(=O)NC3=C(C=C4C(=C3)C=NN4)F
Method in brief: as §1

[11] = compound: CC1=C(C2=C(C=C1)C(=O)C3=CC=CC=C3N2CCCN)C
Method in brief: as §1

[12] = compound: CC1=C(C=C(C=C1)NC(=O)C2=CC(=CC=C2)C(C)(C)C#N)NC3=CC4=C(C=C3)N=CN(C4=O)C
Method in brief: as §1

[13] = compound: CC1=CC=C(C=C1)SC2=C3C=C(SC3=CN=C2)C(=O)N
Method in brief: as §1

[14] = compound: C1=CC=C(C=C1)C2=NC(=C(N2)C3=CC=NC=C3)C4=CC(=C(C=C4)Cl)O
Method in brief: as §1

IRAK-1-4 Inhibitor I = compound: C1COCCN1CCN2C3=CC=CC=C3N=C2NC(=O)C4=CC(=CC=C4)[N+](=O)[O-] [IRAK-1-4 Inhibitor I]
Method in brief: as §1

ralimetinib = compound: CC(C)(C)Cn1c(N)nc2ccc(-c3[nH]c(C(C)(C)C)nc3-c3ccc(F)cc3)nc21 [ralimetinib]
Method in brief: as §1

[15] = compound: CC(C)(O)CC(=O)NCCn1ccc2ncnc(Nc3ccc(Oc4cccc(C(F)(F)F)c4)c(Cl)c3)c21
Method in brief: as §1

[16] = compound: CC1=C(C=C(C=C1)NC(=O)C2=CC(=CC=C2)N(C)C)NC(=O)C3=CC=C(C=C3)O
Method in brief: as §1

Measured: log2 fold change

RXRB isoform 3 (UniProt P28702)
inactive: erlotinib -0.025 | [1] 0.006 | [2] -0.038 | [3] -0.014 | [4] 0.051 | [5] -0.039 | [6] 0.011 | [7] -0.015 | ibrutinib 0.047 | [8] -0.037 | [9] 0.106 | [10] 0.026 | [11] -0.005 | [12] 0.011 | [13] -0.109

RPS5 (UniProt P46782)
inactive: erlotinib 0.009 | [1] 0.071 | [2] 0.003 | [3] -0.001 | [4] -0.03 | [14] -0.02 | [5] -0.026 | [6] 0.009 | [7] -0.029 | IRAK-1-4 Inhibitor I 0.01 | ibrutinib 0.012 | [8] 0 | ralimetinib -0.017 | [15] -0.013 | [9] 0.017 | [10] -0.006 | [11] -0.015 | [12] -0.038 | [16] -0.012 | [13] 0.036

RSL1D1 (UniProt O76021)
inactive: erlotinib -0.017 | [1] -0.039 | [2] -0.019 | [3] 0.008 | [4] -0.01 | [14] 0.017 | [5] 0.034 | [6] 0.05 | [7] -0.012 | IRAK-1-4 Inhibitor I -0.021 | ibrutinib -0.027 | [8] -0.005 | ralimetinib -0.006 | [15] -0.007 | [9] 0 | [10] -0.004 | [11] -0.005 | [12] -0.019 | [16] 0.017 | [13] 0.032

RSF1 (UniProt Q96T23)
inactive: erlotinib -0.012 | [1] 0.021 | [2] -0.054 | [3] -0.112 | [4] 0.001 | [14] 0.201 | [5] -0.058 | [6] -0.03 | [7] -0.003 | IRAK-1-4 Inhibitor I -0.046 | ibrutinib -0.021 | [8] 0.092 | ralimetinib -0.025 | [15] -0.043 | [9] -0.048 | [11] 0.064 | [12] -0.067 | [16] -0.002 | [13] -0.026

RPS6KA5 (UniProt O75582)
active: [12] -0.441
inactive: erlotinib -0.036 | [1] -0.161 | [2] 0.2 | [3] 0.014 | [14] 0.023 | [5] 0.152 | [6] -0.02 | [7] -0.11 | IRAK-1-4 Inhibitor I 0.014 | [8] 0.173 | ralimetinib -0.02 | [15] -0.055 | [9] -0.027 | [10] 0.011 | [11] -0.04 | [16] 0.004 | [13] 0.005

RPS27A (UniProt P62979)
inactive: erlotinib 0.031 | [1] -0.317 | [2] 0.035 | [3] -0.059 | [4] -0.023 | [14] 0.011 | [5] -0.068 | [6] -0.006 | [7] -0.019 | IRAK-1-4 Inhibitor I 0.017 | ibrutinib -0.034 | [8] 0 | ralimetinib 0.082 | [15] -0.073 | [9] 0.049 | [10] -0.026 | [11] 0.019 | [12] 0.022 | [16] -0.004 | [13] 0.018

RUSC2 (UniProt Q8N2Y8)
inactive: erlotinib -0.005 | [1] -0.041 | [2] 0.056 | [3] -0.207 | [4] -0.123 | [14] 0.175 | [5] -0.024 | IRAK-1-4 Inhibitor I -0.237 | ibrutinib 0.051 | ralimetinib 0.008 | [15] 0.041 | [9] -0.063 | [10] 0.111 | [11] -0.032 | [16] -0.216

RSBN1L (UniProt Q6PCB5)
inactive: erlotinib -0.015 | [1] -0.07 | [2] 0.001 | [3] -0.031 | [4] -0.08 | [14] 0.036 | [5] 0 | [6] 0.034 | [7] 0.025 | IRAK-1-4 Inhibitor I -0.018 | ibrutinib 0.007 | [8] -0.029 | ralimetinib -0.001 | [15] -0.02 | [9] 0.004 | [10] 0.028 | [11] -0.059 | [12] 0.026 | [16] 0.008 | [13] -0.03

RSAD1 (UniProt Q9HA92)
inactive: erlotinib 0.051 | [1] -0.029 | [2] 0.118 | [3] -0.025 | [4] -0.001 | [14] -0.016 | [5] -0.098 | [6] -0.081 | [7] 0.23 | IRAK-1-4 Inhibitor I 0.002 | ibrutinib -0.097 | [8] -0.191 | ralimetinib 0.098 | [15] -0.12 | [9] 0.038 | [11] -0.398 | [12] -0.021 | [16] 0.086 | [13] -0.099

S100A6 (UniProt P06703)
active: [11] 0.793
inactive: erlotinib 0.045 | [1] 0.346 | [2] -0.025 | [3] 0 | [14] -0.196 | [5] 0.02 | [6] 0.352 | [7] 0.151 | IRAK-1-4 Inhibitor I -0.209 | [8] -0.082 | ralimetinib 0.117 | [15] 0.152 | [9] -0.01 | [12] 0.04 | [16] 0.199 | [13] 0.032

RPP38 (UniProt P78345)
inactive: erlotinib -0.023 | [1] 0 | [2] -0.012 | [3] -0.058 | [4] -0.027 | [14] 0.008 | [5] -0.021 | [6] -0.017 | [7] -0.001 | IRAK-1-4 Inhibitor I 0.033 | ibrutinib -0.006 | [8] -0.006 | ralimetinib -0.01 | [15] -0.033 | [9] -0.022 | [10] -0.021 | [11] 0.004 | [12] 0.012 | [16] 0.011 | [13] -0.021

RPS6KB2 (UniProt Q9UBS0)
inactive: erlotinib -0.015 | [2] -0.154 | [6] -0.058 | [7] -0.061 | [8] 0.185 | [9] -0.002 | [10] -0.011 | [11] -0.062 | [12] -0.023 | [13] -0.327

RPUSD1 (UniProt Q9UJJ7)
inactive: [1] 0.099 | [3] -0.194 | [14] -0.007 | [5] -0.119 | [6] 0.206 | [7] -0.092 | IRAK-1-4 Inhibitor I 0.133 | ralimetinib -0.103 | [15] -0.185 | [11] 0 | [16] 0.136

Reprinted at random: 2 entries already listed.
RPS6KB2 (UniProt Q9UBS0)
inactive: erlotinib -0.015 | [2] -0.154 | [6] -0.058 | [7] -0.061 | [8] 0.185 | [9] -0.002 | [10] -0.011 | [11] -0.062 | [12] -0.023 | [13] -0.327

RPP38 (UniProt P78345)
inactive: erlotinib -0.023 | [1] 0 | [2] -0.012 | [3] -0.058 | [4] -0.027 | [14] 0.008 | [5] -0.021 | [6] -0.017 | [7] -0.001 | IRAK-1-4 Inhibitor I 0.033 | ibrutinib -0.006 | [8] -0.006 | ralimetinib -0.01 | [15] -0.033 | [9] -0.022 | [10] -0.021 | [11] 0.004 | [12] 0.012 | [16] 0.011 | [13] -0.021

(list continues)

RPS3 (UniProt E9PJN9)
inactive: [1] 0.183 | [3] -0.231 | [14] 0.022 | [5] 0.032 | [6] -0.021 | [7] 0.04 | IRAK-1-4 Inhibitor I 0.022 | ralimetinib 0.137 | [15] -0.138 | [12] -0.029 | [16] 0.056

RTL8A (UniProt Q9BWD3)
inactive: [1] -0.081 | [3] -0.021 | [5] 0.002 | [6] 0.187 | [7] -0.238 | [12] -0.101

RSC1A1 (UniProt Q92681)
inactive: [4] -0.109 | ibrutinib -0.07 | [10] -0.209 | [11] -0.441 | [12] -0.083

RXYLT1 (UniProt Q9Y2B1)
inactive: erlotinib -0.135 | [2] 0.235 | [14] -0.2 | IRAK-1-4 Inhibitor I 0.155 | [8] -0.107 | ralimetinib -0.128 | [15] -0.071 | [9] 0.068 | [10] -0.046 | [11] -0.173 | [16] -0.133 | [13] 0.055
